# The list shows a part of the results.
# B1: Gal 12 (Homo sapiens), Q96DT0 (protein)
# chain: MSQPSGGRAPGTRIYSWSCPTVMSPGEKLDPIPDSFILQPPVFHPVVPYVTTIFGGLHAGKMVMLQGVVPLDAHRFQVDFQCGCSLCPRPDIAFHFNPRFHTTKPHVICNTLHGGRWQREARWPHLALRRGSSFLILFLFGNEEVKVSVNGQHFLHFRYRLPLSHVDTLGIFGDILVEAVGFLNINPFVEGSREYPAGHPFLLMSPRLEVPCSHALPQGLSPGQVIIVRGLVLQEPKHFTVSLRDQAAHAPVTLRASFADRTLAWISRWGQKKLISAPFLFYPQRFFEVLLLFQEGGLKLALNGQGLGATSMNQQALEQLRELRISGSVQLYCVHS
# How the values were obtained:
# Assay in all cases: glycan array binding signal (z-score within array); higher = stronger binding
# Conditions in all cases: glycan notation: IUPAC condensed, linker removed
# [1] = biological target: Gal(b1-4)GlcNAc(b1-3)Gal(b1-4)GlcNAc(b1-3)GalNAc
# Method in brief: (§1)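 The Consortium for Functional Glycomics database supplied 3228 glycan arrays, of which those lacking an available protein sequence were dropped. The binding signal, a within-array Z-score, was averaged across arrays of the same protein sequence and across linkers. Negative scores can be read as non-binding.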
# [2] = biological target: Gal(b1-4)GlcNAc(b1-3)Gal(b1-4)GlcNAc(b1-3)[Gal(b1-4)GlcNAc(b1-3)Gal(b1-4)GlcNAc(b1-6)]GalNAc
# Method in brief: as §1
# [3] = biological target: Gal(b1-4)GlcNAc(b1-3)Gal(b1-4)GlcNAc(b1-6)[Gal(b1-3)]GalNAc
# Method in brief: as §1
# [4] = biological target: Gal(b1-4)GlcNAc(b1-3)Gal(b1-4)[Fuc(a1-3)GlcNAc(b1-6)]Gal(b1-4)Glc
# Method in brief: as §1
# [5] = biological target: Gal(b1-4)GlcNAc(b1-3)Gal(b1-4)[Fuc(a1-3)]GlcNAc(b1-3)Gal(b1-4)[Fuc(a1-3)]GlcNAc
# Method in brief: as §1
# [6] = biological target: Gal(b1-4)GlcNAc(b1-3)GalNAc
# Method in brief: as §1
# [7] = biological target: Gal(b1-4)GlcNAc(b1-3)[Fuc(a1-3)GlcNAc(b1-6)]Gal(b1-4)Glc
# Method in brief: as §1
# [8] = biological target: Gal(b1-4)GlcNAc(b1-3)[Gal(b1-4)GlcNAc(b1-6)]Gal(b1-4)GlcNAc
# Method in brief: as §1
# [9] = biological target: Gal(b1-4)GlcNAc(b1-3)[Gal(b1-4)GlcNAc(b1-6)]GalNAc
# Method in brief: as §1
# [10] = biological target: Gal(b1-4)GlcNAc(b1-3)[GlcNAc(b1-6)]Gal(b1-4)GlcNAc
# Method in brief: as §1
# [11] = biological target: Gal(b1-4)GlcNAc(b1-6)Gal(b1-4)GlcNAc
# Method in brief: as §1
# [12] = biological target: Gal(b1-4)GlcNAc(b1-6)GalNAc
# Method in brief: as §1
# [13] = biological target: Gal(b1-4)GlcNAc(b1-6)[Gal(b1-3)]GalNAc
# Method in brief: as §1
# [14] = biological target: Gal(b1-4)GlcNAc(b1-6)[Gal(b1-4)GlcNAc(b1-3)]GalNAc
# Method in brief: as §1
# Gal(b1-4)GlcNAc6P = biological target: Gal(b1-4)GlcNAc6P
# Method in brief: as §1
# Gal(b1-6)Gal = biological target: Gal(b1-6)Gal
# Method in brief: as §1
# Gal3S(b1-3)GalNAc = biological target: Gal3S(b1-3)GalNAc
# Method in brief: as §1
# Gal3S(b1-3)GlcNAc = biological target: Gal3S(b1-3)GlcNAc
# Method in brief: as §1
# [15] = biological target: Gal3S(b1-3)[Fuc(a1-4)]GlcNAc
# Method in brief: as §1
# Gal3S(b1-4)Glc = biological target: Gal3S(b1-4)Glc
# Method in brief: as §1
# Gal3S(b1-4)Glc6S = biological target: Gal3S(b1-4)Glc6S
# Method in brief: as §1
# Gal3S(b1-4)GlcNAc = biological target: Gal3S(b1-4)GlcNAc
# Method in brief: as §1
# Gal3S(b1-4)GlcNAc6S = biological target: Gal3S(b1-4)GlcNAc6S
# Method in brief: as §1
# [16] = biological target: Gal3S(b1-4)[Fuc(a1-3)]Glc
# Method in brief: as §1
# [17] = biological target: Gal3S(b1-4)[Fuc(a1-3)]Glc6S
# Method in brief: as §1
# [18] = biological target: Gal3S(b1-4)[Fuc(a1-3)]GlcNAc
# Method in brief: as §1
# [19] = biological target: Gal3S(b1-4)[Fuc(a1-3)]GlcNAc6S
# Method in brief: as §1
# Gal3S4S(b1-4)GlcNAc = biological target: Gal3S4S(b1-4)GlcNAc
# Method in brief: as §1
# Gal3S6S(b1-4)GlcNAc = biological target: Gal3S6S(b1-4)GlcNAc
# Method in brief: as §1
# Gal3S6S(b1-4)GlcNAc6S = biological target: Gal3S6S(b1-4)GlcNAc6S
# Method in brief: as §1
# Gal4S(b1-4)GlcNAc = biological target: Gal4S(b1-4)GlcNAc
# Method in brief: as §1
# Gal4S6S(b1-4)GlcNAc = biological target: Gal4S6S(b1-4)GlcNAc
# Method in brief: as §1
# Gal6P(b1-4)GlcNAc = biological target: Gal6P(b1-4)GlcNAc
# Method in brief: as §1
# Gal6S(b1-3)GlcNAc = biological target: Gal6S(b1-3)GlcNAc
# Method in brief: as §1
# Gal6S(b1-3)GlcNAc6S = biological target: Gal6S(b1-3)GlcNAc6S
# Method in brief: as §1
# Gal6S(b1-4)Glc = biological target: Gal6S(b1-4)Glc
# Method in brief: as §1
# Gal6S(b1-4)Glc6S = biological target: Gal6S(b1-4)Glc6S
# Method in brief: as §1
# Gal6S(b1-4)GlcNAc = biological target: Gal6S(b1-4)GlcNAc
# Method in brief: as §1
binder,measurement,setting,value
B1,glycan array binding signal (z-score),[1],-0.447
same,glycan array binding signal (z-score),[2],-0.119
same,glycan array binding signal (z-score),[3],0.615
same,glycan array binding signal (z-score),[4],-0.022
same,glycan array binding signal (z-score),[5],0.012
same,glycan array binding signal (z-score),[6],0.295
same,glycan array binding signal (z-score),[7],0.537
same,glycan array binding signal (z-score),[8],0.824
same,glycan array binding signal (z-score),[9],-0.352
same,glycan array binding signal (z-score),[10],-1.11
same,glycan array binding signal (z-score),[11],-0.725
same,glycan array binding signal (z-score),[12],0.417
same,glycan array binding signal (z-score),[13],0.131
same,glycan array binding signal (z-score),[14],0.954
same,glycan array binding signal (z-score),Gal(b1-4)GlcNAc6P,0.272
same,glycan array binding signal (z-score),Gal(b1-6)Gal,0.159
same,glycan array binding signal (z-score),Gal3S(b1-3)GalNAc,-0.01
same,glycan array binding signal (z-score),Gal3S(b1-3)GlcNAc,-0.005
same,glycan array binding signal (z-score),[15],0.343
same,glycan array binding signal (z-score),Gal3S(b1-4)Glc,0.451
same,glycan array binding signal (z-score),Gal3S(b1-4)Glc6S,0.539
same,glycan array binding signal (z-score),Gal3S(b1-4)GlcNAc,-0.335
same,glycan array binding signal (z-score),Gal3S(b1-4)GlcNAc6S,-0.56
same,glycan array binding signal (z-score),[16],2.01
same,glycan array binding signal (z-score),[17],3.19
same,glycan array binding signal (z-score),[18],2.76
same,glycan array binding signal (z-score),[19],-0.166
same,glycan array binding signal (z-score),Gal3S4S(b1-4)GlcNAc,0.103
same,glycan array binding signal (z-score),Gal3S6S(b1-4)GlcNAc,-0.659
same,glycan array binding signal (z-score),Gal3S6S(b1-4)GlcNAc6S,-0.767
same,glycan array binding signal (z-score),Gal4S(b1-4)GlcNAc,-0.015
same,glycan array binding signal (z-score),Gal4S6S(b1-4)GlcNAc,0.647
same,glycan array binding signal (z-score),Gal6P(b1-4)GlcNAc,0.375
same,glycan array binding signal (z-score),Gal6S(b1-3)GlcNAc,-0.369
same,glycan array binding signal (z-score),Gal6S(b1-3)GlcNAc6S,0.846
same,glycan array binding signal (z-score),Gal6S(b1-4)Glc,-0.183
same,glycan array binding signal (z-score),Gal6S(b1-4)Glc6S,0.851
same,glycan array binding signal (z-score),Gal6S(b1-4)GlcNAc,-0.639

# Fetched one by one from the entries so far, 2 records:
binder,measurement,setting,value
B1,glycan array binding signal (z-score),[8],0.824
same,glycan array binding signal (z-score),[14],0.954

# From the supplement of paper PMC8728848
